Measurements reported in publication PMC8200423.
These are yes or no findings as the source states them, for the method shown. In cells and extracts the contact can be indirect. Some entries that bind do so weakly or less than the wild type. Each block holds one substance with its values, some of them ahead of it.

By UniProt entry, the sequences of proteins in these tests, tags left out. Residues count along the entry.
UniProt P02708, residues 21-457: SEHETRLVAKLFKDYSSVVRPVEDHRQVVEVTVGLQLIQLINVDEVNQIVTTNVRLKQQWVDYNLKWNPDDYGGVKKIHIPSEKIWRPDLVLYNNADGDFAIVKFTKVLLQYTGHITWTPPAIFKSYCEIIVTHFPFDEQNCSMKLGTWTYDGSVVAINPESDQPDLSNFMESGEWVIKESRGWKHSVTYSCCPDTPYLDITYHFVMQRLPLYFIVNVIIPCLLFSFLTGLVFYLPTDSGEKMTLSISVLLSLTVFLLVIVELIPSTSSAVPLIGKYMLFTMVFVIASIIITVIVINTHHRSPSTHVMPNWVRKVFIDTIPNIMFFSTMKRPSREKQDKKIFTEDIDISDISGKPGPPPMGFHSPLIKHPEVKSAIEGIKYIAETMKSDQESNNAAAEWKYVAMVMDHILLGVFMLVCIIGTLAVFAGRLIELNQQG
UniProt Q58WW2: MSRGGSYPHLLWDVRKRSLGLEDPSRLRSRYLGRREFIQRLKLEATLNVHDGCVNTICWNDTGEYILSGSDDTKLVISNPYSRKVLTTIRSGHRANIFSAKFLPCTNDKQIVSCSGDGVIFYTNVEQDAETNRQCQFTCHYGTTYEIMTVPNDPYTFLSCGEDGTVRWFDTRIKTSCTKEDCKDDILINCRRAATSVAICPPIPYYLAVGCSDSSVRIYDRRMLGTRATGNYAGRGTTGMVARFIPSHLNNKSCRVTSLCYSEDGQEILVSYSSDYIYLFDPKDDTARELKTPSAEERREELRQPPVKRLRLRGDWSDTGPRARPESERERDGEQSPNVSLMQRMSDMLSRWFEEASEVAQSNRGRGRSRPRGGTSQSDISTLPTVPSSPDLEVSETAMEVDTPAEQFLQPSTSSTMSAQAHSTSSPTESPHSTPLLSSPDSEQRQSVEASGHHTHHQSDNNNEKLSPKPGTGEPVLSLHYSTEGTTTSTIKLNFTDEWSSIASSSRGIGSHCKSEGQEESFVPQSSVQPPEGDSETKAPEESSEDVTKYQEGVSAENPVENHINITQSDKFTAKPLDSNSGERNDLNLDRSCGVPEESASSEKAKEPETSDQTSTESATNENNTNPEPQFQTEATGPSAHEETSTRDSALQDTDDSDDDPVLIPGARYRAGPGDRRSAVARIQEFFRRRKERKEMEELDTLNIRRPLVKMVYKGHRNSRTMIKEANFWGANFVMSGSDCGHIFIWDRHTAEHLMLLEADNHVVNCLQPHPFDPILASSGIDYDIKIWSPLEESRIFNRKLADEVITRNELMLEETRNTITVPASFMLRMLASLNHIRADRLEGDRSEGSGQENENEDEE
UniProt P04756, residues 21-457: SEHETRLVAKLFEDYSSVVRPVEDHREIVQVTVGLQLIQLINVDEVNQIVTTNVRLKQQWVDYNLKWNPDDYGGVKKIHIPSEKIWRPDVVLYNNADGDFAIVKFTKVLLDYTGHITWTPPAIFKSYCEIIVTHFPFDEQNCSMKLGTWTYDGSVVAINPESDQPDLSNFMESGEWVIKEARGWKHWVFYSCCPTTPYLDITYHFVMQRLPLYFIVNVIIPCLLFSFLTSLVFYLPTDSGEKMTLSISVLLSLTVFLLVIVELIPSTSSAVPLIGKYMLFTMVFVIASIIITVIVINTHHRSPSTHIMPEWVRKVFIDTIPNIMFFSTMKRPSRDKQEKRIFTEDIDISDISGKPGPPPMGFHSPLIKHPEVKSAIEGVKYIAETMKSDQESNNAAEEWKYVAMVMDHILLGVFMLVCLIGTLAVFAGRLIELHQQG
UniProt Q9DC22: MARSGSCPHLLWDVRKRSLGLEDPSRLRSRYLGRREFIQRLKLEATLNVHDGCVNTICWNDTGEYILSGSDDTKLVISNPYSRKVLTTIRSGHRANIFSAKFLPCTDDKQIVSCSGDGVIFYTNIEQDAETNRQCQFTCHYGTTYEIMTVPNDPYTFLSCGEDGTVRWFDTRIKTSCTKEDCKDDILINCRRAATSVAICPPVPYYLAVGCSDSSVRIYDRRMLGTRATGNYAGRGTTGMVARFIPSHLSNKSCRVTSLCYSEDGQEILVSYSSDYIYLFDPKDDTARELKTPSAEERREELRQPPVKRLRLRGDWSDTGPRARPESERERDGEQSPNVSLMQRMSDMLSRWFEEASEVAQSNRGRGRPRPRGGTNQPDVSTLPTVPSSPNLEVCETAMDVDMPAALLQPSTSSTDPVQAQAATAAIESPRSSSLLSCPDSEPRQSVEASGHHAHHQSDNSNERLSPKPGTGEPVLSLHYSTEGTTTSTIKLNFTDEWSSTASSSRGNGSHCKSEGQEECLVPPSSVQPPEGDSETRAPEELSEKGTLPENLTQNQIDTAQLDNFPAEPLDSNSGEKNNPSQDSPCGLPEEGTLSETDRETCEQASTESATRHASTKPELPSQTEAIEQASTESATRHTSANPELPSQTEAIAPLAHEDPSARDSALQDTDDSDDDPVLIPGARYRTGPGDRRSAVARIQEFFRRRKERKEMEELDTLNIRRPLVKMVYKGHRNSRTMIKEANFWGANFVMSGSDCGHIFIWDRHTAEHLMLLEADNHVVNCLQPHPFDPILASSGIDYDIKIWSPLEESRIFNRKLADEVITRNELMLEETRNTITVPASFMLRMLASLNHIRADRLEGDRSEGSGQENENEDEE

Assays:
Flag‐AChRα = Flag‐AChRα (UniProt P02708); test: co-IP; HEK293T cells co-transfected with EGFP-NRIP and Flag-AChRα; immunoprecipitation with anti-EGFP or anti-Flag, Western blot
EGFP‐NRIP = EGFP‐NRIP (UniProt Q58WW2); test: as above
[1] = biological target: α subunit of AChR (AChRα), endogenous (mouse (endogenous in C2C12)) (UniProt P04756); test: co-IP; endogenous proteins in lysates of C2C12 cells differentiated for 5 days; immunoprecipitation with anti-NRIP, anti-AChRα or normal rabbit IgG, Western blot
[2] = biological target: nuclear receptor interaction protein (NRIP), endogenous (mouse (endogenous in gastrocnemius muscle and C2C12)) (UniProt Q9DC22); test: as above

binding (Flag‐AChRα): binds
Substance: EGFP‐NRIP (from UniProt Q58WW2 1-860)

binding (EGFP‐NRIP): binds
Substance: Flag‐AChRα (from UniProt P02708 21-457)

binding [1]: binds
Substance: nuclear receptor interaction protein (NRIP), endogenous (from UniProt Q9DC22 1-876)

binding [2]: binds
Substance: α subunit of AChR (AChRα), endogenous (from UniProt P04756 21-457)
